# Reference: US20220031690A1, “ANTI-NEURODEGENERATIVE DISEASE AGENT” (Hayashibara Co., Ltd., priority 2018, published 2022)
# Some results were stated once for a whole list of compounds, not compound by compound. Some ranges recur; such a range may be that of the whole group of compounds.
# Columns and labels:
# PC12-HS cells [1] = assay: Evaluation method B: neurite-outgrowth promoting activity in the presence of NGF; assay type: cell-based, rat; conditions: NGF 10 ng/ml, 3 days, class of neurite-outgrowth rate
# Excerpt: (§1) As a model of the nerve cell, the NGF (nerve growth factor) highly sensitive strain of PC12 cell derived from the rat adrenal pheochromocytoma (hereinafter referred to as “PC12-HS cell”; JCRB cell bank, National Research and Development Institute of Health and Nutrition), which has been widely used as a suitable model for research on human neurodegenerative disease, was used. As the test compound, […] of trimethine cyanine dye compounds; NK-5 (Chemical formula 2), NK-36 (Chemical formula 3), NK-44 (Chemical formula 5) and dye compounds represented by Chemical formulae 12 to 18, and NK-6 (Chemical formula 7), which is a monomethine cyanine dye, were selected. In addition, two kinds of ethylene cross-linked dyes (Chemical formulae 19 and 20), 15 kinds of monomethine cyanine dyes (Chemical formulae 21 to 35), and seven kinds of trimethine cyanine dyes (Chemical formulae 36 to 42), which were expected to have a good neurocyte growth acceleration activity and/or neurite-outgrowth promoting activity in the screening disclosed in Patent literature 6, were also re-evaluated for comparison. The Chemical formulae 12 to 42 are shown below. […]
# PC12-HS cells [2] = assay: Evaluation method A: neurocyte growth acceleration activity (Alamar blue); assay type: cell-based, rat; conditions: 3 days culture, class of cell proliferation rate vs negative control = 100%
# Excerpt: as §1
compound,measurement,setting,value
CCN1C=CC(=Cc2cc[n+](CC)c3ccccc23)c2ccccc21.[I-] [NK-6],Action on PC12-HS neurite-outgrowth promotion (500 ng/ml),PC12-HS cells [1],double circle (45% or more was judged to be more potent than NK-4 (“double circle”))
same,Action on PC12-HS growth acceleration (50 ng/ml),PC12-HS cells [2],circle (the relative value of 130% to 169% was judged to be equivalent to NK-4 (“circle”))
